According to patent US7488592:
No constants are given. Whether binding was seen depends on the method and setting. In cells and extracts the contact can be indirect. Some entries that bind do so weakly or less than the wild type. Sequences can lack the tags named with a protein.

T1: FLAG-Erf2p (yeast (S. cerevisiae)) (UniProt Q06551)
T1 sequence: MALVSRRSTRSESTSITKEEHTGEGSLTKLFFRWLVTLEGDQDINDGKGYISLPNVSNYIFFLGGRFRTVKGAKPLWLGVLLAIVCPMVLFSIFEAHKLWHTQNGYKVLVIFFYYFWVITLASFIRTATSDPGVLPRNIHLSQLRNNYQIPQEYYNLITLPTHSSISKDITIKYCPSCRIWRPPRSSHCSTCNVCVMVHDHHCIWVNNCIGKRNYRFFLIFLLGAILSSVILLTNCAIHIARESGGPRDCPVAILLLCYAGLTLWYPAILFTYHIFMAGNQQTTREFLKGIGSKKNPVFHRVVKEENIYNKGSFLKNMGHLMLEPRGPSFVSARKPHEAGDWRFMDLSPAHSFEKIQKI

T2: GST-Erf4p (yeast (S. cerevisiae)) (UniProt P41912)
T2 sequence: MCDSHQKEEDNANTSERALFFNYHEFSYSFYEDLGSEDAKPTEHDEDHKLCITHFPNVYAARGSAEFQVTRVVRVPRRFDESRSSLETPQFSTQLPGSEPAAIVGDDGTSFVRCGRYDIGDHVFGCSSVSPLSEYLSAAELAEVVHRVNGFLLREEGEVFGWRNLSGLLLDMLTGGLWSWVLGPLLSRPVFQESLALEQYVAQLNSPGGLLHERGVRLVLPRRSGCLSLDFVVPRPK


Key:
[1] = target: T1, FLAG-Erf2p (yeast (S. cerevisiae)); assay: co-purification on anti-FLAG antibody-agarose beads from yeast extracts
[2] = target: T2, GST-Erf4p (yeast (S. cerevisiae)); assay: co-purification on GSH-agarose from yeast extracts, immunoblot
[3] = target: T2, GST-Erf4p (yeast (S. cerevisiae)); assay: co-purification on GSH-agarose from E. coli extracts, immunoblot (FIG. 7)
[4] = target: T2, GST-Erf4p (yeast (S. cerevisiae)); assay: co-purification with GST-Erf4p

binding [1]	binding [2]	binding [3]	binding [4]	Binder
binds				GST-Erf4p (protein, not shown: a dimerising Fc or GST) MCDSHQKEEDNANTSERALFFNYHEFSYSFYEDLGSEDAKPTEHDEDHKLCITHFPNVYAARGSAEFQVTRVVRVPRRFDESRSSLETPQFSTQLPGSEPAAIVGDDGTSFVRCGRYDIGDHVFGCSSVSPLSEYLSAAELAEVVHRVNGFLLREEGEVFGWRNLSGLLLDMLTGGLWSWVLGPLLSRPVFQESLALEQYVAQLNSPGGLLHERGVRLVLPRRSGCLSLDFVVPRPK
	binds	binds		FLAG-Erf2(H201A)p (enzyme, not shown: small tags and cut ends) MALVSRRSTRSESTSITKEEHTGEGSLTKLFFRWLVTLEGDQDINDGKGYISLPNVSNYIFFLGGRFRTVKGAKPLWLGVLLAIVCPMVLFSIFEAHKLWHTQNGYKVLVIFFYYFWVITLASFIRTATSDPGVLPRNIHLSQLRNNYQIPQEYYNLITLPTHSSISKDITIKYCPSCRIWRPPRSSHCSTCNVCVMVHDAHCIWVNNCIGKRNYRFFLIFLLGAILSSVILLTNCAIHIARESGGPRDCPVAILLLCYAGLTLWYPAILFTYHIFMAGNQQTTREFLKGIGSKKNPVFHRVVKEENIYNKGSFLKNMGHLMLEPRGPSFVSARKPHEAGDWRFMDLSPAHSFEKIQKI
		binds	binds	FLAG-Erf2(C203S)p (enzyme, not shown: small tags and cut ends) MALVSRRSTRSESTSITKEEHTGEGSLTKLFFRWLVTLEGDQDINDGKGYISLPNVSNYIFFLGGRFRTVKGAKPLWLGVLLAIVCPMVLFSIFEAHKLWHTQNGYKVLVIFFYYFWVITLASFIRTATSDPGVLPRNIHLSQLRNNYQIPQEYYNLITLPTHSSISKDITIKYCPSCRIWRPPRSSHCSTCNVCVMVHDHHSIWVNNCIGKRNYRFFLIFLLGAILSSVILLTNCAIHIARESGGPRDCPVAILLLCYAGLTLWYPAILFTYHIFMAGNQQTTREFLKGIGSKKNPVFHRVVKEENIYNKGSFLKNMGHLMLEPRGPSFVSARKPHEAGDWRFMDLSPAHSFEKIQKI
